Data published in article PMC9513783.
These are yes or no findings as the source states them, for the method shown. Binding seen in cells or lysates may run through a third protein. Some entries that bind do so weakly or less than the wild type. Where a sequence is shown, tags or fusion partners need not be part of it.

The chains behind the UniProt entries cited, without tags or fusion partners.
UniProt P16220: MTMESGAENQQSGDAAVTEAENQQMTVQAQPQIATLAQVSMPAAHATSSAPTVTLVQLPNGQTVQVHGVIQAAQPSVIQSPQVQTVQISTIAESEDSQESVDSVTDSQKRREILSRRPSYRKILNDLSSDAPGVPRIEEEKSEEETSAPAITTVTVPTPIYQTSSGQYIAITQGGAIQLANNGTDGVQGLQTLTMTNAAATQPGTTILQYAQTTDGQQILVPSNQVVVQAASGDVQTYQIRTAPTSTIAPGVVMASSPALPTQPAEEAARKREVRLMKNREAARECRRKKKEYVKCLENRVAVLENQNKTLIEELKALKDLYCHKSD
UniProt Q92793: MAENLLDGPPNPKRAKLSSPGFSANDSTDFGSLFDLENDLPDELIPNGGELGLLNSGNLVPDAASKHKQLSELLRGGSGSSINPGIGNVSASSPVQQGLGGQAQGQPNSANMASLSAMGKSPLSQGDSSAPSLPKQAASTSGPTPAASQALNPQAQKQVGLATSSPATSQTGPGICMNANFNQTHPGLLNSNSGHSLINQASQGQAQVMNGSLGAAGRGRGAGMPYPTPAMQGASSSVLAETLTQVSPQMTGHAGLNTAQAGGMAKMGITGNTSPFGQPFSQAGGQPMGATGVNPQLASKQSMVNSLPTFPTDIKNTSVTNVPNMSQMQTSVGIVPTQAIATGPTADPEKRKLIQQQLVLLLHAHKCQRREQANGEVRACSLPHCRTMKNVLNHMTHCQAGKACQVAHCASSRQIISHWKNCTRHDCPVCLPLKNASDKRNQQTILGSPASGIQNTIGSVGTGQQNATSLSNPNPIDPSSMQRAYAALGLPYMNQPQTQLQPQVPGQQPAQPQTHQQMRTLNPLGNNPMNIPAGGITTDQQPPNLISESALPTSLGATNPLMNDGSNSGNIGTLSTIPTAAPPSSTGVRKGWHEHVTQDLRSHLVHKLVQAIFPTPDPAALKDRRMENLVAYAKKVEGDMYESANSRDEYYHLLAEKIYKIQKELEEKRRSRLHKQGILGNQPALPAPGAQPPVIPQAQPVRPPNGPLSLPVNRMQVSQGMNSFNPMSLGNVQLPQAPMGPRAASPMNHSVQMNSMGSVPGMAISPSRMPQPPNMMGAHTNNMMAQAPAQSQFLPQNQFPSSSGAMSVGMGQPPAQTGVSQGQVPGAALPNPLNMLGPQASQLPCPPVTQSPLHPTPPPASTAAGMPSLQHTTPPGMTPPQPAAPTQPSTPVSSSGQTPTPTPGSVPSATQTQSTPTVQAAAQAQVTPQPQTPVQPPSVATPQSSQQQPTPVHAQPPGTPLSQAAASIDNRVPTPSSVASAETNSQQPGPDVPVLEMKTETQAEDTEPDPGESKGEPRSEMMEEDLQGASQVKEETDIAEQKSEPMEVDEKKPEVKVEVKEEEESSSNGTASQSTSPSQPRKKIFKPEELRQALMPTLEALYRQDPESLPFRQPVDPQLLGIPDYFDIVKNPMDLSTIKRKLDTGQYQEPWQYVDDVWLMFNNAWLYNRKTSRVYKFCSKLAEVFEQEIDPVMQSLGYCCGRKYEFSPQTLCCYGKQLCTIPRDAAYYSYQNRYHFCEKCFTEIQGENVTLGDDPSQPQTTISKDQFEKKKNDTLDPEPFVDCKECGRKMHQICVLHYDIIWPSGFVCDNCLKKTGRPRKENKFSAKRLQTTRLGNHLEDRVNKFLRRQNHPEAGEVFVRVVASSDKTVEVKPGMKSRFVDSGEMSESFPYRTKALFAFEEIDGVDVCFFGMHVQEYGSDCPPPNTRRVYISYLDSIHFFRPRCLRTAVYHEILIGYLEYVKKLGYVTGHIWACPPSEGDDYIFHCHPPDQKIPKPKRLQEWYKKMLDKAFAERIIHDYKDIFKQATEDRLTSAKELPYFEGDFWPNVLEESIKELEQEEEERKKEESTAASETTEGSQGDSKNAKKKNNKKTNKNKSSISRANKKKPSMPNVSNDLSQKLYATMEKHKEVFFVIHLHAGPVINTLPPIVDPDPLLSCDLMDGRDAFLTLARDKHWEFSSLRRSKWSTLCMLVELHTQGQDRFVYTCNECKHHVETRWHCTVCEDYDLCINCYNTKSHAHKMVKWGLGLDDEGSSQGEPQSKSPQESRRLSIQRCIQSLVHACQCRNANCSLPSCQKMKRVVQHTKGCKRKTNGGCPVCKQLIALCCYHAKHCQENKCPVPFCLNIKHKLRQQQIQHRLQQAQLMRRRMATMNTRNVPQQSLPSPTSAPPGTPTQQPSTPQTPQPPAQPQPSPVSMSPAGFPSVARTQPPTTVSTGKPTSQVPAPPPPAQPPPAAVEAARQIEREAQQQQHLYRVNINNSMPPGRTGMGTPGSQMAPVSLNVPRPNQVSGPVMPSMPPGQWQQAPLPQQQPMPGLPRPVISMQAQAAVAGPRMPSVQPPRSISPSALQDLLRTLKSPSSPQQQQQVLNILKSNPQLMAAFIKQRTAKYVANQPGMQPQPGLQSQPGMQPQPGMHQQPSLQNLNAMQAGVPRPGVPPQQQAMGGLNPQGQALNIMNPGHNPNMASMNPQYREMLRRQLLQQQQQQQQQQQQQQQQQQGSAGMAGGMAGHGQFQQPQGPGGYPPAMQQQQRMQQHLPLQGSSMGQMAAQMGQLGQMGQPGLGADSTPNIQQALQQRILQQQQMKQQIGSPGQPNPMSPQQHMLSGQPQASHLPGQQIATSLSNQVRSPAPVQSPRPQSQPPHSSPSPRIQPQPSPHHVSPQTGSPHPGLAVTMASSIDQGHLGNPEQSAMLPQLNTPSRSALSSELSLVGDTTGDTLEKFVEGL
UniProt P04406: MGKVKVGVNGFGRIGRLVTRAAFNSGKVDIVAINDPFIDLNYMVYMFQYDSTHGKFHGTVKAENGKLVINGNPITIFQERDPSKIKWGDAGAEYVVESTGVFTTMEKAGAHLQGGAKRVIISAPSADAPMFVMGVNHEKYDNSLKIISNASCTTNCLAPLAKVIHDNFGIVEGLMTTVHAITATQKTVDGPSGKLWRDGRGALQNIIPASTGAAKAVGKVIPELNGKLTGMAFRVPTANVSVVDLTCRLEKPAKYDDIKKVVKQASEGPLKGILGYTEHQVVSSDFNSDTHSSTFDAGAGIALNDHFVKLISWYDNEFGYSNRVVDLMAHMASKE
UniProt O14744: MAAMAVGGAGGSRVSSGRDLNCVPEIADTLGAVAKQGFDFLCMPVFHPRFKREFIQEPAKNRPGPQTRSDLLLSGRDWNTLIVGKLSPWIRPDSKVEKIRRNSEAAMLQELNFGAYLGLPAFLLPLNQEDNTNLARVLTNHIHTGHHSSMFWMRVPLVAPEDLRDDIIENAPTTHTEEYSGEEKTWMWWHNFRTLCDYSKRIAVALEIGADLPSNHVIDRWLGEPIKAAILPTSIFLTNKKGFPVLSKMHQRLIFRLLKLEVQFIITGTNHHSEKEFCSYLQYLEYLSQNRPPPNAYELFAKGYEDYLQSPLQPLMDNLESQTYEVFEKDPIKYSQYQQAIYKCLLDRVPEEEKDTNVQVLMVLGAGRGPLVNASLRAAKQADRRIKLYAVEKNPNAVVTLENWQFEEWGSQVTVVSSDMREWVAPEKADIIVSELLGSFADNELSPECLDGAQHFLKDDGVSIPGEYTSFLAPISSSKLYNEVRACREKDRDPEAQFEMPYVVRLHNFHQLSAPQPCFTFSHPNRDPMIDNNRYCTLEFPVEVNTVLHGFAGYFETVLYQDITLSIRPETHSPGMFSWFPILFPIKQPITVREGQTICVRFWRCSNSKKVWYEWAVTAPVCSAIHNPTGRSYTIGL

Target: T1, Flag-tagged EWSR1(2-325)-ATF1(66-271) fusion (UniProt Q01844)
T1 sequence: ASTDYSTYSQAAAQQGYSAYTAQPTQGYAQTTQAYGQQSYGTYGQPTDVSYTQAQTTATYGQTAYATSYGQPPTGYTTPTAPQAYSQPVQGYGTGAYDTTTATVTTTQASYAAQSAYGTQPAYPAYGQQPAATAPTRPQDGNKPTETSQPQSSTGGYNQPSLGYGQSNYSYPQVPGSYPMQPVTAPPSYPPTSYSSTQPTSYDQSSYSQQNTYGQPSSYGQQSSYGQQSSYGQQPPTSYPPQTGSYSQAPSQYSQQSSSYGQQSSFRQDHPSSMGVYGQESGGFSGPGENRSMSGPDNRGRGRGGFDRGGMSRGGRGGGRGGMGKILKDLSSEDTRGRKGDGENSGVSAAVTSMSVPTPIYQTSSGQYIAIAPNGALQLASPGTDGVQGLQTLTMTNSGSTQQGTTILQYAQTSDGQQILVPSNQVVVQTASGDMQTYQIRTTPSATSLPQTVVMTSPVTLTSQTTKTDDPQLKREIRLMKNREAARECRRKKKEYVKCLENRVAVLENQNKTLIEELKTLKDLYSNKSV
Experiment: co-IP; Flag-EWSR1-ATF1 expressed in HEK 293T; lysis buffer A (50 mM Tris, 5 mM EDTA, 150 mM NaCl, 1 mM DTT, 0.5% Nonidet P-40, pH 8.0); IP with anti-Flag (M2) or mouse IgG overnight at 4 C, protein A/G agarose; eluted with 1% SDS in PBS; Western blot

binding | Substance
binds | CRE-binding protein 1 (from UniProt P16220 1-327)
no binding | CREB-binding protein (from UniProt Q92793 1-2442)
no binding | GAPDH (from UniProt P04406 1-335)
binds | protein arginine methyltransferase 5 (from UniProt O14744 1-637) (enzyme)
